The source of these data is the supplement of paper PMC10849652.

Protein sequences, listed by entry. Tags and fused reporters are not part of them. Lines headed by an entry give the natural chain unless they say otherwise; changes in a name come on top.
UniProt Q9ULG6: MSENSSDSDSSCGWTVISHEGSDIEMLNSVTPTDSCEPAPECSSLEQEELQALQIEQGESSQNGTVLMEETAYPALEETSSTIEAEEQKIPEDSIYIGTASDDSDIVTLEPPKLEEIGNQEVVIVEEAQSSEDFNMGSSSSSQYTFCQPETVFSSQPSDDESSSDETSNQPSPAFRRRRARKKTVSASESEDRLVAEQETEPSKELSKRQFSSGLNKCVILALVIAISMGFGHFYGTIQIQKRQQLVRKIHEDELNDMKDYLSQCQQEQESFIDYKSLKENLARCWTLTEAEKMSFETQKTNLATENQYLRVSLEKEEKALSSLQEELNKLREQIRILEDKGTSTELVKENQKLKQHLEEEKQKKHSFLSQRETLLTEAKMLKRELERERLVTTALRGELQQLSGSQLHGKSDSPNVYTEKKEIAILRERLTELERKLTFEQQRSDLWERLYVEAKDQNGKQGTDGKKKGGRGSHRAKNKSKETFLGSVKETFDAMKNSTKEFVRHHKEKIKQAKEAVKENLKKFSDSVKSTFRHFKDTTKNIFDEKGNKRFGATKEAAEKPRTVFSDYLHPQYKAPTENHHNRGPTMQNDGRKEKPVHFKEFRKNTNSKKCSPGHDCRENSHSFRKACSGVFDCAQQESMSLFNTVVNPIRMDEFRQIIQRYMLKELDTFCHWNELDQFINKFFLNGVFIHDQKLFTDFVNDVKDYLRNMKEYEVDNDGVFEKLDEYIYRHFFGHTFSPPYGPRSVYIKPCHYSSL
UniProt P49589: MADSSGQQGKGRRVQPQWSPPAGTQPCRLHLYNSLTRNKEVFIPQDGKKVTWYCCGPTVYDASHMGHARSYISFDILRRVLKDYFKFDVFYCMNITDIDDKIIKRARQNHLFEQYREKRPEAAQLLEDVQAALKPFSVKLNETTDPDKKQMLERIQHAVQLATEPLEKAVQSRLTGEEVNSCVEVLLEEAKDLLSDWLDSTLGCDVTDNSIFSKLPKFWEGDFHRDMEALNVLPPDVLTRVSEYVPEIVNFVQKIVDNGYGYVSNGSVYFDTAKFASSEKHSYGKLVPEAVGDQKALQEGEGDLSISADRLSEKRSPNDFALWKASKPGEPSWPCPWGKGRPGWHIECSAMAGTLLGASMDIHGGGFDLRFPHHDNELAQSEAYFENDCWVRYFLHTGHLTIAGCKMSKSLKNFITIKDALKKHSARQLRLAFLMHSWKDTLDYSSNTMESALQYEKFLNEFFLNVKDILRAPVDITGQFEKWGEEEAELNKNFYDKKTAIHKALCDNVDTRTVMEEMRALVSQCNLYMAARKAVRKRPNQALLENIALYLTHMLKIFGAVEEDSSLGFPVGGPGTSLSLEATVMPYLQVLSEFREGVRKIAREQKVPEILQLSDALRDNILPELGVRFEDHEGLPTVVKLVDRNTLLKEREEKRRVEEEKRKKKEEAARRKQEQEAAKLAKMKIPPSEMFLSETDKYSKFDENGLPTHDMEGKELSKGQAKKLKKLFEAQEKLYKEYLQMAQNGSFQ
UniProt O60826, whole entry, looked up: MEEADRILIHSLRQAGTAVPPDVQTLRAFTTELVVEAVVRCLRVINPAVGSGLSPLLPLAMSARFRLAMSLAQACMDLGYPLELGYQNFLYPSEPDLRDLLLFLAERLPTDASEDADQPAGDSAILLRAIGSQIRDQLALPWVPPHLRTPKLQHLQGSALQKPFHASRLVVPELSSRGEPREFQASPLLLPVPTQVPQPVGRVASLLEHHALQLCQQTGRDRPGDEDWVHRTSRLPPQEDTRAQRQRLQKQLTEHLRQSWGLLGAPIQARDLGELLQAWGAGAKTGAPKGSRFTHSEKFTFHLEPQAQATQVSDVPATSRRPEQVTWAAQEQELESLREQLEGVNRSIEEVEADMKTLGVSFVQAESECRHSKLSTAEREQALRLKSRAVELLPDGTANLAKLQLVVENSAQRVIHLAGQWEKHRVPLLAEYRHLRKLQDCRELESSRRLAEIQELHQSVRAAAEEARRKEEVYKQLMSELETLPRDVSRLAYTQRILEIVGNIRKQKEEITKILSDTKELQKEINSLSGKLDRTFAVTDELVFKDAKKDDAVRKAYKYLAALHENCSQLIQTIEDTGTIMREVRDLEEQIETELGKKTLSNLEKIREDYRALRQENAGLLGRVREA
UniProt P78371: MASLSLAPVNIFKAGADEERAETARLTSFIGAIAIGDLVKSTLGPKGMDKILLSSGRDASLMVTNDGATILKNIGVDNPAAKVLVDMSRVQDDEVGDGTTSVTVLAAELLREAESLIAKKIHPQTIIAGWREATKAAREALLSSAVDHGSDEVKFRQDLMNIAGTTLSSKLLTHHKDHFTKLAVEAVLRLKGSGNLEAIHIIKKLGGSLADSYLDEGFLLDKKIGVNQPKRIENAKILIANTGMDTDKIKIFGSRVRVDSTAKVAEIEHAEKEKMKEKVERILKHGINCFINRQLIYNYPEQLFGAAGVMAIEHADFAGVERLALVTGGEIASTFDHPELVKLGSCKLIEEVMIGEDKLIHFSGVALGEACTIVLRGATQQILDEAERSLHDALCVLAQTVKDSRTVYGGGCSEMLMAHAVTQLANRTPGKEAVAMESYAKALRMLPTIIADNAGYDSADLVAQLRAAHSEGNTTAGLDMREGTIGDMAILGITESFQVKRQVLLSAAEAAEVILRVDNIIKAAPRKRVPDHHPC
UniProt P15529: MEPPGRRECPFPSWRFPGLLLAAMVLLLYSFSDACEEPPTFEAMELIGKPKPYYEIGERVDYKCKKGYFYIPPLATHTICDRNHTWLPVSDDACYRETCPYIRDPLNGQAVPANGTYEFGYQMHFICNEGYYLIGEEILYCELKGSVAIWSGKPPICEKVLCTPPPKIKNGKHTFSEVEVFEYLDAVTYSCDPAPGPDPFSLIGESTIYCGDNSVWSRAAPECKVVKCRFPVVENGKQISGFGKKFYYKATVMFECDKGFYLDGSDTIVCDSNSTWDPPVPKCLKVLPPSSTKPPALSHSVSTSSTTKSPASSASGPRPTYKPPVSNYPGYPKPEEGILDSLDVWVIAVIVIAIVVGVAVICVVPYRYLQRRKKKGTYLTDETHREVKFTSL
UniProt Q9BV29: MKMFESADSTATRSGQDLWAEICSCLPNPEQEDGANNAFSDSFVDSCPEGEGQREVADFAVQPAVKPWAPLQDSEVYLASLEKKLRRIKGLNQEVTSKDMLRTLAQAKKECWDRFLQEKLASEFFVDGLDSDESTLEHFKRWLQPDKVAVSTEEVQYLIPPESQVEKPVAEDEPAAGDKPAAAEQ
UniProt Q6PII3: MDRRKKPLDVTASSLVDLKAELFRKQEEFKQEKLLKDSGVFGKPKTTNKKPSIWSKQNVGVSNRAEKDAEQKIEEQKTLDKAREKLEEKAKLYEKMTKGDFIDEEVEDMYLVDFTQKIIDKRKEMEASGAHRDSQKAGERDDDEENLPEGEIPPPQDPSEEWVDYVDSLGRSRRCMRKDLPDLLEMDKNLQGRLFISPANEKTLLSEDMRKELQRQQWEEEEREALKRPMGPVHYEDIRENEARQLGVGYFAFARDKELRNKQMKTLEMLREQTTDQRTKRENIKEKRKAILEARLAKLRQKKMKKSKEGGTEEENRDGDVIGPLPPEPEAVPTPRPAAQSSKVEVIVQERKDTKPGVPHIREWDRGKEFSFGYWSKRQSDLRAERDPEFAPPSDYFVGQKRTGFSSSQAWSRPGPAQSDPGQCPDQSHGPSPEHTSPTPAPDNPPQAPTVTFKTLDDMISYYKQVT
UniProt O14618: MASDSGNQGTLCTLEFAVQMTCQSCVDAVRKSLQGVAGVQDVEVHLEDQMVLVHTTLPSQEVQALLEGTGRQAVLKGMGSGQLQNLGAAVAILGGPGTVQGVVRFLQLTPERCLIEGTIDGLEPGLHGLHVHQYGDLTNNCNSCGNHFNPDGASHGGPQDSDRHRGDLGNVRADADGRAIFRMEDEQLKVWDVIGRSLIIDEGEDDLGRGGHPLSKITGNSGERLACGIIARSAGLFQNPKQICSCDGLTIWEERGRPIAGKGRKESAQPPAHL
UniProt O75794: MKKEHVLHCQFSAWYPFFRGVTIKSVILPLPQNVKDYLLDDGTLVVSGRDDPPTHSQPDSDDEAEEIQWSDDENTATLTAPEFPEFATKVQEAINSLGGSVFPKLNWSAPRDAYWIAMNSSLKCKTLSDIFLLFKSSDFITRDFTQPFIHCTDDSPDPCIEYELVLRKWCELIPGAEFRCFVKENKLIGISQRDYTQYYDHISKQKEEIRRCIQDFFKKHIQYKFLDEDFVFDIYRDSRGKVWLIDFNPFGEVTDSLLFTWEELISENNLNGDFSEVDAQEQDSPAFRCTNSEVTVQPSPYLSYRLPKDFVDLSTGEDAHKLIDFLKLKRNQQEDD
UniProt Q8N163, whole entry, looked up: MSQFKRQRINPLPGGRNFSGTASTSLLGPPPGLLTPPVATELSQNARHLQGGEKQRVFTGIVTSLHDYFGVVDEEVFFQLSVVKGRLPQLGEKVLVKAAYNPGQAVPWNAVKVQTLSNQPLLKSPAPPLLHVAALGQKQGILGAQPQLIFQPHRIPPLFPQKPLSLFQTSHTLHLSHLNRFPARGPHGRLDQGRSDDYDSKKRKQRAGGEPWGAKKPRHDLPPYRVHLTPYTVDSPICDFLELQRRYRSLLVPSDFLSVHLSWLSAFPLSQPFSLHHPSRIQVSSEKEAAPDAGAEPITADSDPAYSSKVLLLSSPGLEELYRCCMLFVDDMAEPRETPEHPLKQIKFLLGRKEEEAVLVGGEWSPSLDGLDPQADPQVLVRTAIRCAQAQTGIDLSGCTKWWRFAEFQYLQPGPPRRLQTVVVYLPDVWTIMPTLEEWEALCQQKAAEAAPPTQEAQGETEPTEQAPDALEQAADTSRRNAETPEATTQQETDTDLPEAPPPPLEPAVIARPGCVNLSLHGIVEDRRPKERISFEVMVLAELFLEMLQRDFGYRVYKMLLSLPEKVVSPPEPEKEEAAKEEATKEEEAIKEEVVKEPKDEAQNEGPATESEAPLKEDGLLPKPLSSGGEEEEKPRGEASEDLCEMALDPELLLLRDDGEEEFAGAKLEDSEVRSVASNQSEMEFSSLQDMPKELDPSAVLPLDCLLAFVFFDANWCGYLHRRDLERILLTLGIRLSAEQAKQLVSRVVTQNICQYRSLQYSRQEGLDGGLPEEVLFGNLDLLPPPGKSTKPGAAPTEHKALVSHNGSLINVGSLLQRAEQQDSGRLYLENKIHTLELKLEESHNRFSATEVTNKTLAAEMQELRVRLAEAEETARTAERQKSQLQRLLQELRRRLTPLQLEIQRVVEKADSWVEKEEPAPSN
UniProt Q8N4J0: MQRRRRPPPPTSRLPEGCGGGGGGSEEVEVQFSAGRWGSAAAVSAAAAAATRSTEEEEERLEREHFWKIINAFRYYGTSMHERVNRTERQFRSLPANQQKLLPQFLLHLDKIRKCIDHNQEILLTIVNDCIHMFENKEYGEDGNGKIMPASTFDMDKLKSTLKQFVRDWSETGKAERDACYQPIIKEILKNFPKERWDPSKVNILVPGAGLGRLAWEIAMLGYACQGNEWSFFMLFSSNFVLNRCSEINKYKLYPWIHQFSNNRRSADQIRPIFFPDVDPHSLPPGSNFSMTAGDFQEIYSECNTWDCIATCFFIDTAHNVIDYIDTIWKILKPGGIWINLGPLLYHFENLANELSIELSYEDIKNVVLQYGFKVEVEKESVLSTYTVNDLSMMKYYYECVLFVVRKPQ
UniProt P55212: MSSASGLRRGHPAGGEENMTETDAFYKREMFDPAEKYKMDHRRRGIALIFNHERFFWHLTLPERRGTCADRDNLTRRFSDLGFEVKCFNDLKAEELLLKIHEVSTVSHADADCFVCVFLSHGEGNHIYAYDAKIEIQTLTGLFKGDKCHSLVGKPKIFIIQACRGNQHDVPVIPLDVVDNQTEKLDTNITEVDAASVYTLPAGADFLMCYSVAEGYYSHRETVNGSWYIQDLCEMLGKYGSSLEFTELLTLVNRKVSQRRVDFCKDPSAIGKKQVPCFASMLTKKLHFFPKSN
UniProt O75909: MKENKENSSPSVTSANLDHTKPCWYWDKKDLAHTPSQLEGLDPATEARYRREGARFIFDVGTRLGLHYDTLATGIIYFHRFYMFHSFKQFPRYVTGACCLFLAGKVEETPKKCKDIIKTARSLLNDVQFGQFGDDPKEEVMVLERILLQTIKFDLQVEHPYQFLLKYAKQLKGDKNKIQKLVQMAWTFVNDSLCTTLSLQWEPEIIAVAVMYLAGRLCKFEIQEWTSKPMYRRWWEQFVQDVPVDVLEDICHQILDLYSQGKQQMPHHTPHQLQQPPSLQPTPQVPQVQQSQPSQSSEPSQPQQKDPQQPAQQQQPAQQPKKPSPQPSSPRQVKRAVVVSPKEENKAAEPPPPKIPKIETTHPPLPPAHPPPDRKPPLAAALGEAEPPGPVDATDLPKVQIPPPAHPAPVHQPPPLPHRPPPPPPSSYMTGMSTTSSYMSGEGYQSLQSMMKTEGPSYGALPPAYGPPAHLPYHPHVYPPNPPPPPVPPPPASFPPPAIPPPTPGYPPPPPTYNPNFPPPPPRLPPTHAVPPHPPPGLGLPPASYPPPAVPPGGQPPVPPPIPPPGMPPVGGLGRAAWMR

The other results are listed elsewhere or left out.

Compound in one experiment: CC1=C(SC2=C1C(=N[C@H](C3=NN=C(N32)C)CC(=O)N)C4=CC=C(C=C4)Cl)C
As to the kind of experiment: log2 fold change, soluble protein after heating vs DMSO (PISA); higher = thermal stabilisation; K562 cells, 10 uM, 30 min; active = over 0.2 and 3.5 SD of the protein, either way, in both replicates (recomputed). The method, boiled down:
(§1)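 Aliquots of K562 cells (2×10^6 cells/mL) treated with 10 μM compound for 30 min were heated for 3 min over 48°C-58°C. After pooling and extraction in PBS with 0.5% NP-40 at 4°C, soluble protein from a 21,000xg, 90 min spin was quantified by TMTpro 16plex LC-MS/MS with channel sums equalised. Thermal stability is expressed against control samples, from duplicates, as a log2 fold change.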
On to CCPG1 isoform 5 (UniProt Q9ULG6), for which the log2 fold change was inactive: -0.11.

Regarding CCT7 (UniProt Q99832), the log2 fold change was inactive: -0.013.

Consider CARS isoform 3 (UniProt P49589), for which the log2 fold change was inactive: 0.015.

Regarding CCDC86 (UniProt Q9H6F5), the log2 fold change was inactive: -0.288.

On to CBR1 (UniProt P16152), for which the log2 fold change was inactive: 0.015.

Turning to CCDC22 (UniProt O60826), the log2 fold change is inactive: 0.011.

As to CCT2 (UniProt P78371), the log2 fold change was inactive: 0.003.

For the target CD46 isoform 2 (UniProt P15529), the log2 fold change is inactive: 0.09.

Turning to CBX5 (UniProt P45973), the log2 fold change is inactive: 0.029.

On to CCDC32 isoform 2 (UniProt Q9BV29), for which the log2 fold change is inactive: 0.052.

For the target CAVIN1 (UniProt Q6NZI2), the log2 fold change is inactive: -0.127.

CCDC174 (UniProt Q6PII3): the log2 fold change is inactive: 0.001.

Turning to CCDC137 (UniProt Q6PK04), the log2 fold change is inactive: -0.474.

Consider CDC27 isoform 2 (UniProt P30260), for which the log2 fold change is inactive: -0.006.

On to CCS (UniProt O14618), for which the log2 fold change was inactive: 0.083.

Consider CASTOR2 (UniProt A6NHX0), for which the log2 fold change is inactive: 0.078.

Turning to CD53 (UniProt P19397), the log2 fold change is inactive: 0.142.

Turning to CBLB (UniProt Q13191), the log2 fold change was inactive: 0.047.

CDC123 (UniProt O75794): the log2 fold change was inactive: 0.

In the case of CDC16 (UniProt Q13042), the log2 fold change was inactive: -0.023.

Consider CASP3 (UniProt P42574), for which the log2 fold change was inactive: 0.004.

For the target CCAR2 isoform 2 (UniProt Q8N163), the log2 fold change is inactive: -0.014.

CARNMT1 (UniProt Q8N4J0): the log2 fold change is inactive: 0.144.

As to CCNY (UniProt Q8ND76), the log2 fold change was inactive: -0.036.

On to CASP6 (UniProt P55212), for which the log2 fold change was inactive: 0.028.

Regarding CASC3 (UniProt O15234), the log2 fold change is inactive: 0.044.

For CCNK isoform 4 (UniProt O75909), the log2 fold change is inactive: -0.115.

As for CARM1 (UniProt Q86X55), the log2 fold change is inactive: 0.018.

For the target CCDC93 (UniProt Q567U6), the log2 fold change was inactive: -0.033.

Consider CD99L2 isoform 5 (UniProt Q8TCZ2), for which the log2 fold change is inactive: 0.113.

Compound in the next experiment: CC1=C2C(=CC=C1)N=C(N(C2=O)C3=CC=CC=C3C)CN4C=NC5=C(N=CN=C54)N
The description is as above. The method in brief: as §1
CCPG1 isoform 5 (UniProt Q9ULG6): the log2 fold change was inactive: -0.081.

Take CCT7 (UniProt Q99832): the log2 fold change is inactive: -0.013.

Take CARS isoform 3 (UniProt P49589): the log2 fold change is inactive: 0.011.

Regarding CCDC86 (UniProt Q9H6F5), the log2 fold change was inactive: -0.182.

CBR1 (UniProt P16152): the log2 fold change was inactive: 0.01.

In the case of CCDC22 (UniProt O60826), the log2 fold change was inactive: 0.068.

Turning to CCT2 (UniProt P78371), the log2 fold change is inactive: -0.044.

In the case of CD46 isoform 2 (UniProt P15529), the log2 fold change was inactive: 0.02.

Consider CBX5 (UniProt P45973), for which the log2 fold change is inactive: 0.05.

As for CCDC32 isoform 2 (UniProt Q9BV29), the log2 fold change was inactive: 0.076.

Consider CAVIN1 (UniProt Q6NZI2), for which the log2 fold change is inactive: -0.103.

As to CCDC174 (UniProt Q6PII3), the log2 fold change was inactive: 0.024.

Take CCDC137 (UniProt Q6PK04): the log2 fold change was inactive: -0.395.

In the case of CDC27 isoform 2 (UniProt P30260), the log2 fold change was inactive: 0.028.

Regarding CCS (UniProt O14618), the log2 fold change is inactive: 0.095.

CASTOR2 (UniProt A6NHX0): the log2 fold change is inactive: 0.039.

Take CD53 (UniProt P19397): the log2 fold change was inactive: 0.106.

Consider CBLB (UniProt Q13191), for which the log2 fold change is inactive: 0.009.

For the target CDC123 (UniProt O75794), the log2 fold change is inactive: 0.03.

For the target CDC16 (UniProt Q13042), the log2 fold change was inactive: -0.008.

Take CASP3 (UniProt P42574): the log2 fold change is inactive: -0.005.

Turning to CCAR2 isoform 2 (UniProt Q8N163), the log2 fold change is inactive: 0.079.

For the target CARNMT1 (UniProt Q8N4J0), the log2 fold change is inactive: 0.068.

As for CCNY (UniProt Q8ND76), the log2 fold change is inactive: 0.078.

Take CASP6 (UniProt P55212): the log2 fold change was inactive: -0.021.

For CASC3 (UniProt O15234), the log2 fold change was inactive: 0.015.

For CCNK isoform 4 (UniProt O75909), the log2 fold change was inactive: 0.015.

For CARM1 (UniProt Q86X55), the log2 fold change is inactive: 0.028.

For CCDC93 (UniProt Q567U6), the log2 fold change is inactive: 0.069.

In the case of CD99L2 isoform 5 (UniProt Q8TCZ2), the log2 fold change was inactive: -0.145.

Compound in a further experiment: Cc1sc2c(c1C)C(c1ccc(Cl)cc1)=N[C@@H](CC(=O)OC(C)(C)C)c1nnc(C)n1-2
The experiment is described as above. The method, boiled down: as §1
On to CCPG1 isoform 5 (UniProt Q9ULG6), for which the log2 fold change is inactive: -0.024.

Turning to CCT7 (UniProt Q99832), the log2 fold change was inactive: -0.022.

CARS isoform 3 (UniProt P49589): the log2 fold change is inactive: 0.004.

For the target CCDC86 (UniProt Q9H6F5), the log2 fold change is inactive: 0.153.

With CBR1 (UniProt P16152), the log2 fold change is inactive: -0.028.

As for CCDC22 (UniProt O60826), the log2 fold change was inactive: 0.012.

As for CCT2 (UniProt P78371), the log2 fold change is inactive: -0.019.

In the case of CD46 isoform 2 (UniProt P15529), the log2 fold change was inactive: 0.016.

CBX5 (UniProt P45973): the log2 fold change is inactive: 0.016.

Consider CCDC32 isoform 2 (UniProt Q9BV29), for which the log2 fold change was inactive: 0.005.

As for CAVIN1 (UniProt Q6NZI2), the log2 fold change is inactive: 0.101.

In the case of CCDC174 (UniProt Q6PII3), the log2 fold change is inactive: -0.016.

As for CCDC137 (UniProt Q6PK04), the log2 fold change was inactive: 0.323.

CDC27 isoform 2 (UniProt P30260): the log2 fold change was inactive: 0.006.

As for CCS (UniProt O14618), the log2 fold change is inactive: -0.034.

CASTOR2 (UniProt A6NHX0): the log2 fold change is inactive: -0.065.

Turning to CD53 (UniProt P19397), the log2 fold change is inactive: 0.083.

On to CBLB (UniProt Q13191), for which the log2 fold change is inactive: 0.01.

Take CDC123 (UniProt O75794): the log2 fold change was inactive: -0.018.

Consider CDC16 (UniProt Q13042), for which the log2 fold change was inactive: 0.038.

As to CASP3 (UniProt P42574), the log2 fold change was inactive: -0.055.

On to CCAR2 isoform 2 (UniProt Q8N163), for which the log2 fold change is inactive: -0.089.

Consider CARNMT1 (UniProt Q8N4J0), for which the log2 fold change was inactive: 0.035.

CCNY (UniProt Q8ND76): the log2 fold change was inactive: 0.14.

On to CASP6 (UniProt P55212), for which the log2 fold change is inactive: -0.035.

Consider CASC3 (UniProt O15234), for which the log2 fold change was inactive: 0.244.

On to CCNK isoform 4 (UniProt O75909), for which the log2 fold change is inactive: 0.103.

As to CARM1 (UniProt Q86X55), the log2 fold change was inactive: -0.009.

Take CCDC93 (UniProt Q567U6): the log2 fold change is inactive: -0.013.

For the target CD99L2 isoform 5 (UniProt Q8TCZ2), the log2 fold change was inactive: -0.059.
